Source: the supplement of paper PMC10849652
This is one part of the list.

The chains behind the UniProt entries cited, without tags or fusion partners. Where a name states a change or a piece, a line headed by the entry shows the natural chain unless it says otherwise.
UniProt Q8TEB1, whole entry, looked up: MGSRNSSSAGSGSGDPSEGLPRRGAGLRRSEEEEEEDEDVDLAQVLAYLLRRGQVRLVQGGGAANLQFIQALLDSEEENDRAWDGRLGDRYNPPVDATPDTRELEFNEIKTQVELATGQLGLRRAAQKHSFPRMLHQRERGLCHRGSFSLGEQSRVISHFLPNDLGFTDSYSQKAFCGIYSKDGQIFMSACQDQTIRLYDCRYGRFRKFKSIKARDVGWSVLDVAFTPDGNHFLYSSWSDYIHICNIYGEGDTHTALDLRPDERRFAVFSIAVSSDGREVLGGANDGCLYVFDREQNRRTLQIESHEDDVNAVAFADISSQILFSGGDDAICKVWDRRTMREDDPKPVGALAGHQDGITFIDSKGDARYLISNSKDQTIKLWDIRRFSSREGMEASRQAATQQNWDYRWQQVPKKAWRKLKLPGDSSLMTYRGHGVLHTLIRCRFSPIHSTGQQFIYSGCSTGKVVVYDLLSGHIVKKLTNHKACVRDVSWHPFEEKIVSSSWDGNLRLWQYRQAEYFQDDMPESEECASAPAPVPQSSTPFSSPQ
UniProt Q5VZ89: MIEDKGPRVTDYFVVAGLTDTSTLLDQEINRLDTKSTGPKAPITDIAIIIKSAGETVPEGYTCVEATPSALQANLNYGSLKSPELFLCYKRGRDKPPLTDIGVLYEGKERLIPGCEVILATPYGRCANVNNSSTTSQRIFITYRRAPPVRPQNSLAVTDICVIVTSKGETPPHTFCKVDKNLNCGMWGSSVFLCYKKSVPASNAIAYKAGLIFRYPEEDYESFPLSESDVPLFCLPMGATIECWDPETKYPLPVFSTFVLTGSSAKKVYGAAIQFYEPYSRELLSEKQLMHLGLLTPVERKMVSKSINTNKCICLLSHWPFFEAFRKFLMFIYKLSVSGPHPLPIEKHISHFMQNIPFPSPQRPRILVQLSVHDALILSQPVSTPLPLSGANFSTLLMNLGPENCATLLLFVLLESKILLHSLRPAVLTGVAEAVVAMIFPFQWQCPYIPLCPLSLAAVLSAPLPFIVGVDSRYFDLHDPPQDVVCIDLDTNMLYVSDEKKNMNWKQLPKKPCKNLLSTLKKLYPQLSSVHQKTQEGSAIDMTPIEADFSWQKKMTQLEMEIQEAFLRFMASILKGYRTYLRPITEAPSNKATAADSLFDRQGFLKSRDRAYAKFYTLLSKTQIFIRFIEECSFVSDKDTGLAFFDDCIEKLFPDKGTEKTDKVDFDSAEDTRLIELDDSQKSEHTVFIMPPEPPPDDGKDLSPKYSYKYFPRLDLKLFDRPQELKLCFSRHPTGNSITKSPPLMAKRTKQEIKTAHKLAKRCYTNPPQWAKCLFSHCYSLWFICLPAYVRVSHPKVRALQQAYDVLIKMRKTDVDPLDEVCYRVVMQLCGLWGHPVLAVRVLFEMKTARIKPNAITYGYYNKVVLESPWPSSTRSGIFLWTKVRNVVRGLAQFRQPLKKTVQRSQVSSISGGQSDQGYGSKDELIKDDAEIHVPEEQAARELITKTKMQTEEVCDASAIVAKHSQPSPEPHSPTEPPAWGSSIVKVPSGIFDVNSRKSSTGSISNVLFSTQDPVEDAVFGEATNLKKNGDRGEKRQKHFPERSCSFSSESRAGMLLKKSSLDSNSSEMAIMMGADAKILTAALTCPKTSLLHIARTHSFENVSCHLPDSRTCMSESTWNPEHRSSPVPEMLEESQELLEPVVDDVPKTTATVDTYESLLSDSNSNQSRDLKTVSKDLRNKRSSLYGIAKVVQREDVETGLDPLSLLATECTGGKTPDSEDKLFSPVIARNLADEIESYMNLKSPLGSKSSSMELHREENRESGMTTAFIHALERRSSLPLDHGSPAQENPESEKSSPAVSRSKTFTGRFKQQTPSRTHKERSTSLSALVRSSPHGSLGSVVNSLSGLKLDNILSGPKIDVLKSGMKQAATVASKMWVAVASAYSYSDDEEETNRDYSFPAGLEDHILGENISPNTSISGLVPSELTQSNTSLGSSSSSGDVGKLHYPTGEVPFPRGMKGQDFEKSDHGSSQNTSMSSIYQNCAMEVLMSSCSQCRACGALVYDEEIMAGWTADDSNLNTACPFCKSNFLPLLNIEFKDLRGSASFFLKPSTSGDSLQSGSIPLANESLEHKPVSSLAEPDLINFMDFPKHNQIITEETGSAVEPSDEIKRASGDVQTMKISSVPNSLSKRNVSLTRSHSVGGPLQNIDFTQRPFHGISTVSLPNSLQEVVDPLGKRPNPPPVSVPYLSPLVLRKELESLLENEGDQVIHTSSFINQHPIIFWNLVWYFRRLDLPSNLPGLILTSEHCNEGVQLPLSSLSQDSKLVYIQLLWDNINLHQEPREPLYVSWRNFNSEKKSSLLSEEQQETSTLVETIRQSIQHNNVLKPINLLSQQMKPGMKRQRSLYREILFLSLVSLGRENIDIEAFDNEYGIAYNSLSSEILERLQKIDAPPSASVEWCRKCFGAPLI
UniProt Q9Y6V7: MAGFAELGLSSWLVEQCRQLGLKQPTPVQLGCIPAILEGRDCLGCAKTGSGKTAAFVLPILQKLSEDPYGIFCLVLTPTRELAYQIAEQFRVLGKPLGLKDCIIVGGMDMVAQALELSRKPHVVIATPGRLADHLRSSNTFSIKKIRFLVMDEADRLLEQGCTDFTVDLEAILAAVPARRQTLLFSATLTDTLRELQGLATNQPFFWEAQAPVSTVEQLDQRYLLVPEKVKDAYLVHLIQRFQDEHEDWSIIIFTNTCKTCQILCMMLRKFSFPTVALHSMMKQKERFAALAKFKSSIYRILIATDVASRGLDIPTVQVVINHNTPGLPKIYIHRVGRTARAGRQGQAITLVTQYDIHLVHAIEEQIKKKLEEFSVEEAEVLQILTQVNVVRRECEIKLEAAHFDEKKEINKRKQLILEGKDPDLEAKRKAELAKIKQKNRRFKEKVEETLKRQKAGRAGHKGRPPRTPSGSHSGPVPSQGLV
UniProt Q8WUY9, whole entry, looked up: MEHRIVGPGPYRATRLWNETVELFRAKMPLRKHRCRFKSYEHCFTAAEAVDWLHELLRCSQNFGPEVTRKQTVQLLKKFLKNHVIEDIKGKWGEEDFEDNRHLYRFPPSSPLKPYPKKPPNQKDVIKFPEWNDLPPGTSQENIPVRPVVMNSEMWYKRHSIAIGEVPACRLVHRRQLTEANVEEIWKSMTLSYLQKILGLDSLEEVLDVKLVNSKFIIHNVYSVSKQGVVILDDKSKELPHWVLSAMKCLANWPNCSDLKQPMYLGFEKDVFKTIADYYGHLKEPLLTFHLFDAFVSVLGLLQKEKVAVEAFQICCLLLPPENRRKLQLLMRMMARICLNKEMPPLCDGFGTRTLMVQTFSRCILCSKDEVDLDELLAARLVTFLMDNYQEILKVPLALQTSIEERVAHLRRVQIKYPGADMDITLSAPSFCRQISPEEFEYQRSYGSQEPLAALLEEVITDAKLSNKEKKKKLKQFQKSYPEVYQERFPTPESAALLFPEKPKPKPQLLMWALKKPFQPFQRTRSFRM
UniProt Q9BSY9: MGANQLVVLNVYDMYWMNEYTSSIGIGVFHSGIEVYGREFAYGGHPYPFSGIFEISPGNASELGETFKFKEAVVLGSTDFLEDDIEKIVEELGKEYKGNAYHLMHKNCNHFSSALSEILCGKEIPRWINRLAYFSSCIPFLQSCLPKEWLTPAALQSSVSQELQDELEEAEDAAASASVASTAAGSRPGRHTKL
UniProt Q9NUL7: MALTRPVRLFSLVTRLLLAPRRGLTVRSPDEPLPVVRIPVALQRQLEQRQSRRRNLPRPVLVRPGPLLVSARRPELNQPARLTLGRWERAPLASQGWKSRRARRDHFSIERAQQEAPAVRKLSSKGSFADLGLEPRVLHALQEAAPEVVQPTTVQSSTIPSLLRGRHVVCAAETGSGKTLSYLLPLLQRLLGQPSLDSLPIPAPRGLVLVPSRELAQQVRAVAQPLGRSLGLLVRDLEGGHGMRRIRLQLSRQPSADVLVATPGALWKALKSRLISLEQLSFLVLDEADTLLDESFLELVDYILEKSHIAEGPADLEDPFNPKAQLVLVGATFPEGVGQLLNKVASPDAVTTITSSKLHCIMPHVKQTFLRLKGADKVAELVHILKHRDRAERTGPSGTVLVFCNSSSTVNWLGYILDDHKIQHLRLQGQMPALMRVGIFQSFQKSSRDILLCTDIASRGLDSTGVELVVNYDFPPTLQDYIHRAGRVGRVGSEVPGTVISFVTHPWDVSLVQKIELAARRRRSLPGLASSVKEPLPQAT
UniProt Q9NX09: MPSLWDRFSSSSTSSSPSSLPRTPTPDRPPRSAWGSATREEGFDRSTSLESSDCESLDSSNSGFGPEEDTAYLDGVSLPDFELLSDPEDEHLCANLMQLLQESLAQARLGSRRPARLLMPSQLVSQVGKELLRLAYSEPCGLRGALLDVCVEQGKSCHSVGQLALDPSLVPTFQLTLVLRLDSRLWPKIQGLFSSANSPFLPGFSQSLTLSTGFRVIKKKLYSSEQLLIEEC
UniProt Q16531, whole entry, looked up: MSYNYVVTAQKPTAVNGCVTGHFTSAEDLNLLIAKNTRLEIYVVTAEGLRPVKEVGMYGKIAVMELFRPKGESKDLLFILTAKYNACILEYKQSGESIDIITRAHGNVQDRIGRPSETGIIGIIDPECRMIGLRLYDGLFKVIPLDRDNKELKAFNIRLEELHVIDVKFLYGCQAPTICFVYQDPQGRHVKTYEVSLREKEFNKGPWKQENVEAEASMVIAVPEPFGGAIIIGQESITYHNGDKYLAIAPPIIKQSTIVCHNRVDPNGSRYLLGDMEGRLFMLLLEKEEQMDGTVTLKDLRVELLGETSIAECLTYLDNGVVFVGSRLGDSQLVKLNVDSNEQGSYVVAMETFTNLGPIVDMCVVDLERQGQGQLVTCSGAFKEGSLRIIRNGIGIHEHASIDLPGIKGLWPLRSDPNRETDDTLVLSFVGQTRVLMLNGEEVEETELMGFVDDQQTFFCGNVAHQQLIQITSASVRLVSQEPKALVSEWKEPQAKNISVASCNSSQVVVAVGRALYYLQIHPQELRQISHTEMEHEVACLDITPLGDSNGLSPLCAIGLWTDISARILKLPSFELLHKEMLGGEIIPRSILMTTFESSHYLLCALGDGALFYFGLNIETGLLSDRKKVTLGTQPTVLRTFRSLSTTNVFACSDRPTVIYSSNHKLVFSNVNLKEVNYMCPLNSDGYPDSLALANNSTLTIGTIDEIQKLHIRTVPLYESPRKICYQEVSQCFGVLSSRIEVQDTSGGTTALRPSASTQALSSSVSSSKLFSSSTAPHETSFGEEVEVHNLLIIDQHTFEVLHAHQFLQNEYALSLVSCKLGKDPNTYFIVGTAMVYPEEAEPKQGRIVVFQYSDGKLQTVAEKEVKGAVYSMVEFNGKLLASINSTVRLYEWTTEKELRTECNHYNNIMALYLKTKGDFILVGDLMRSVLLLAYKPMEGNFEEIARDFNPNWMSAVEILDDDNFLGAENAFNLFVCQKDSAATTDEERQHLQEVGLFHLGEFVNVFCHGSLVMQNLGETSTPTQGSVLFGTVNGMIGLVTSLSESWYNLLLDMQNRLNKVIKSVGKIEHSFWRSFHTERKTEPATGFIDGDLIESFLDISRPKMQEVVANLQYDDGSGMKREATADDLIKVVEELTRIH
UniProt O43739: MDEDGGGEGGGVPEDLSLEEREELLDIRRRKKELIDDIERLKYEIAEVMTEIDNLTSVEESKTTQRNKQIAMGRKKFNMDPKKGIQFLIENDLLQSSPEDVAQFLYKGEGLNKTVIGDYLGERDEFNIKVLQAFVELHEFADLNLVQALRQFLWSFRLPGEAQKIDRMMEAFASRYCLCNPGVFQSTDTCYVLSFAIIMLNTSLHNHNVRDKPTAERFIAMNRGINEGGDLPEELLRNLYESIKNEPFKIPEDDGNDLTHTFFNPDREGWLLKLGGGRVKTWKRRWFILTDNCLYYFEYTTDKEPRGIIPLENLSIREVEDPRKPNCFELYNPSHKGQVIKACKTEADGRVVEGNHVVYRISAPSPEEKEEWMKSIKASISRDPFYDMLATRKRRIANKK
UniProt Q8WV16: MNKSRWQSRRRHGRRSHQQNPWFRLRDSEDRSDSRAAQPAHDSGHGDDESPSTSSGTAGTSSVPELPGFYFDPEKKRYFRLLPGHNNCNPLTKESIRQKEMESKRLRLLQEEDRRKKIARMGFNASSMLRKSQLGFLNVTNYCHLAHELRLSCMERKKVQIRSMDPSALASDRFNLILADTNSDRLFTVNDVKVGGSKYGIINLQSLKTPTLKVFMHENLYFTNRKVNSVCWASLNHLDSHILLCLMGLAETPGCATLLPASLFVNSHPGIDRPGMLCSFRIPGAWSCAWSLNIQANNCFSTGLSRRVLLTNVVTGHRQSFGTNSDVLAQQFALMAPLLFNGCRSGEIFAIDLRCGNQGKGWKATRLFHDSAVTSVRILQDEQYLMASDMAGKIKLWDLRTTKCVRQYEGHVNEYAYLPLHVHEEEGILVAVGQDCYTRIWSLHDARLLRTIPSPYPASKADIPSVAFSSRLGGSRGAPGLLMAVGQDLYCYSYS

Assays:
Assay in all cases: log2 fold change, soluble protein after heating vs DMSO (PISA); higher = thermal stabilisation; K562 lysate, 10 uM; active = over 0.2 and 3.5 SD of the protein, either way, in both replicates (recomputed)
[1] = compound: C1=CC=C(C=C1)[C@H](COC2=CC3=C(C=C2)NC(=O)N3)NC(=O)C4=CC=CN(C4=O)CC5=CC(=C(C=C5)F)F
Procedure, shortened: (§1)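 Soluble protein was defined as the supernatant remaining after 21,000xg for 90 min, following pooling of heated aliquots and adjustment to 0.5% NP-40 at 4°C. Before that, crude K562 extract at 1 mg/mL protein in PBS pH 7.4 with 1 mM MgCl2 was treated with 10 μM compound for 30 min and heated for 3 min across 48°C-58°C. Quantification used TMTpro 16plex LC-MS/MS with channel sums equalised, and values are log-two fold changes in thermal stability relative to solvent controls from duplicates.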

[2] = compound: CC1=C(SC2=C1C(=N[C@H](C3=NN=C(N32)C)CC(=O)N)C4=CC=C(C=C4)Cl)C
Procedure, shortened: as §1

[3] = compound: CC1=C2C(=CC=C1)N=C(N(C2=O)C3=CC=CC=C3C)CN4C=NC5=C(N=CN=C54)N
Procedure, shortened: as §1

[4] = compound: Cc1sc2c(c1C)C(c1ccc(Cl)cc1)=N[C@@H](CC(=O)OC(C)(C)C)c1nnc(C)n1-2
Procedure, shortened: as §1

[5] = compound: c1ccc([C@@H]2C[C@H]2NC2CCNCC2)cc1
Procedure, shortened: as §1

Row | Target | log2 fold change [1] | log2 fold change [2] | log2 fold change [3] | log2 fold change [4] | log2 fold change [5]
1 | DCAF11 (UniProt Q8TEB1) | inactive: 0.02 | inactive: -0.002 | inactive: 0.046 | inactive: 0.046 | inactive: 0.008
2 | DDX23 (UniProt Q9BUQ8) | inactive: -0.027 | inactive: 0.01 | inactive: -0.013 | inactive: 0.016 | inactive: 0.018
3 | DENND4C (UniProt Q5VZ89) | inactive: 0.012 | inactive: -0.016 | inactive: 0.048 | inactive: -0.01 | inactive: 0.026
4 | DDX49 (UniProt Q9Y6V7) | inactive: -0.022 | inactive: -0.034 | inactive: -0.03 | inactive: -0.021 | inactive: 0.025
5 | DCAF1 (UniProt Q9Y4B6) | inactive: 0.009 | inactive: -0.008 | inactive: 0.007 | inactive: -0.028 | inactive: -0.026
6 | DAGLB (UniProt Q8NCG7) | inactive: 0.016 | inactive: 0.049 | inactive: 0.026 | inactive: 0.053 | inactive: 0.014
7 | DCAF13 (UniProt Q9NV06) | inactive: 0.112 | inactive: 0.006 | inactive: -0.049 | inactive: 0.006 | inactive: 0.011
8 | CZIB (UniProt Q9NWV4) | inactive: 0.06 | inactive: -0.009 | inactive: -0.035 | inactive: 0.031 | inactive: -0.004
9 | DECR2 (UniProt Q9NUI1) | inactive: -0.057 | inactive: 0.06 | inactive: 0.019 | inactive: 0.039 | inactive: 0.082
10 | DDA1 (UniProt Q9BW61) | inactive: 0.073 | inactive: 0.024 | inactive: -0.016 | inactive: -0.003 | inactive: 0.029
11 | DDAH1 (UniProt O94760) |  |  | inactive: 0.005 | inactive: 0.15 | inactive: -0.072
12 | DCAF5 (UniProt Q96JK2) |  |  | inactive: -0.206 | inactive: 0.087 | 
13 | DEPDC1B (UniProt Q8WUY9) |  |  | inactive: 0.082 | inactive: 0.023 | 
14 | DCBLD2 isoform 2 (UniProt Q96PD2) |  |  |  | inactive: 0.041 | inactive: 0.068
15 | DENND5B isoform 2 (UniProt Q6ZUT9) | inactive: -0.06 | inactive: 0.075 |  | inactive: -0.246 | inactive: -0.136
16 | DCTN1 isoform 4 (UniProt Q14203) |  |  | inactive: 0.013 | inactive: -0.13 | inactive: -0.452
17 | DDX51 (UniProt Q8N8A6) |  |  |  | inactive: 0.065 | inactive: 0.034
18 | DEAF1 (UniProt O75398) |  |  |  | inactive: 0.02 | 
19 | DEPDC7 (UniProt Q96QD5) |  |  |  |  | inactive: 0.066
20 | DCBLD1 (UniProt Q8N8Z6) |  |  |  | inactive: 0.112 | inactive: -0.062
21 | DESI2 (UniProt Q9BSY9) |  |  | inactive: -0.142 |  | inactive: -0.038
22 | CYTH2 (UniProt Q99418) | inactive: 0.021 | inactive: -0.042 |  | inactive: -0.002 | inactive: -0.006
23 | DALRD3 (UniProt Q5D0E6) |  |  | inactive: 0.193 |  | inactive: 0.137
24 | DEUP1 (UniProt Q05D60) | inactive: -0.072 | inactive: -0.069 |  | inactive: -0.198 | 
25 | DENND5A (UniProt Q6IQ26) |  |  |  | inactive: 0.027 | 

Row | Target | log2 fold change [1] | log2 fold change [2] | log2 fold change [3] | log2 fold change [4] | log2 fold change [5]
26 | DAPK2 isoform 2 (UniProt Q9UIK4) |  |  | inactive: -0.437 |  | 
27 | DBNDD1 isoform 3 (UniProt Q9H9R9) |  |  |  | inactive: -0.183 | inactive: -0.044
28 | CYP2R1 (UniProt Q6VVX0) |  |  | inactive: -0.001 | inactive: -0.076 | 
29 | DCUN1D3 (UniProt Q8IWE4) | inactive: 0.008 | inactive: 0.031 |  | inactive: 0.035 | inactive: -0.23
30 | CYREN isoform 4 (UniProt Q9BWK5) |  |  |  | inactive: 0.045 | inactive: -0.089
31 | DDR1 isoform 5 (UniProt Q08345) | inactive: -0.1 | inactive: 0.057 |  | inactive: -0.09 | inactive: 0.135
32 | CYP2S1 isoform 2 (UniProt Q96SQ9) |  |  | inactive: 0.033 | inactive: -0.123 | 
33 | DBNL (UniProt Q9UJU6) | inactive: 0.111 | inactive: 0.041 |  | inactive: 0.305 | inactive: 0.075
34 | DDX39B (UniProt F6R6M7) |  |  |  |  | inactive: 0.001
35 | CYTH1 (UniProt Q15438) | inactive: -0.003 | inactive: 0.119 |  |  | inactive: -0.157
36 | DDX28 (UniProt Q9NUL7) | inactive: -0.14 | inactive: 0.116 |  | inactive: 0.019 | inactive: -0.062
37 | DDIT4 (UniProt Q9NX09) |  |  | inactive: 0.004 |  | 
38 | DDB1 isoform 2 (UniProt Q16531) |  |  |  |  | inactive: -0.577
39 | DCUN1D1 (UniProt C9JVE2) | inactive: -0.043 | inactive: 0.022 |  | inactive: -0.016 | 
40 | DAPK1 isoform 3 (UniProt P53355) |  |  | inactive: 0.035 | inactive: 0.013 | inactive: 0.039
41 | DDX60L (UniProt Q5H9U9) |  |  |  | inactive: -0.086 | 
42 | DCLRE1C (UniProt Q96SD1) |  |  |  |  | inactive: -0.033
43 | DCAKD (UniProt Q8WVC6) |  |  | inactive: -0.062 |  | 
44 | CYP4V2 (UniProt Q6ZWL3) | inactive: -0.119 | inactive: 0.188 |  | inactive: 0.035 | 
45 | DDX11 (UniProt Q96FC9) |  |  | inactive: 0.097 | inactive: -0.028 | inactive: 0.156
46 | CYTH3 (UniProt O43739) |  |  |  |  | inactive: 0.006
47 | DDIT3 isoform 2 (UniProt P35638) |  |  | inactive: -0.098 |  | 
48 | CYP4F11 (UniProt Q9HBI6) |  |  |  | inactive: -0.198 | inactive: -0.247
49 | DAPK3 (UniProt O43293) |  |  | inactive: -0.114 |  | inactive: -0.194
50 | DCAF4 (UniProt Q8WV16) | inactive: -0.178 | inactive: -0.097 |  | inactive: -0.278 | inactive: -0.046

Looked up one by one from the entries so far:
Row | Target | log2 fold change [1] | log2 fold change [2] | log2 fold change [3] | log2 fold change [4] | log2 fold change [5]
29 | DCUN1D3 (UniProt Q8IWE4) | inactive: 0.008 | inactive: 0.031 |  | inactive: 0.035 | inactive: -0.23
44 | CYP4V2 (UniProt Q6ZWL3) | inactive: -0.119 | inactive: 0.188 |  | inactive: 0.035 | 
